The values below come from doi:10.1101/2025.02.28.640455.

Chains of the proteins cited; added tags and fusions are not shown.
UniProt Q60722: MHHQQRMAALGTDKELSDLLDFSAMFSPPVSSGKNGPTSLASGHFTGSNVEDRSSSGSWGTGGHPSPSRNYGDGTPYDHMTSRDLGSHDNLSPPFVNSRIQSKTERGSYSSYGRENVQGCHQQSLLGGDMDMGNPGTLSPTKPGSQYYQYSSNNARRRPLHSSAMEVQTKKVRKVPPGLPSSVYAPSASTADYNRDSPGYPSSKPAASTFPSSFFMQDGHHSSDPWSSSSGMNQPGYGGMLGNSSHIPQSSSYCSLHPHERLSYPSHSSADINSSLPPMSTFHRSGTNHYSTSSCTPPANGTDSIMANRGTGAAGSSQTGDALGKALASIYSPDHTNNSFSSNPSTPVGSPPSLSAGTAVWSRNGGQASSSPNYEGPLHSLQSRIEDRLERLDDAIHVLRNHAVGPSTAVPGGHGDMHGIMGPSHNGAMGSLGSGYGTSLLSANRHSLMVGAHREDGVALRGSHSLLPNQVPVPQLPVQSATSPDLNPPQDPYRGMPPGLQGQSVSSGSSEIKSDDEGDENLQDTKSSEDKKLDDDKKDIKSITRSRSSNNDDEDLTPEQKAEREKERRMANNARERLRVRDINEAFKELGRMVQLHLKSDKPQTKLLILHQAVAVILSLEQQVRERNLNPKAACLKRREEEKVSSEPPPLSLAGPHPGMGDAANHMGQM
UniProt P42227: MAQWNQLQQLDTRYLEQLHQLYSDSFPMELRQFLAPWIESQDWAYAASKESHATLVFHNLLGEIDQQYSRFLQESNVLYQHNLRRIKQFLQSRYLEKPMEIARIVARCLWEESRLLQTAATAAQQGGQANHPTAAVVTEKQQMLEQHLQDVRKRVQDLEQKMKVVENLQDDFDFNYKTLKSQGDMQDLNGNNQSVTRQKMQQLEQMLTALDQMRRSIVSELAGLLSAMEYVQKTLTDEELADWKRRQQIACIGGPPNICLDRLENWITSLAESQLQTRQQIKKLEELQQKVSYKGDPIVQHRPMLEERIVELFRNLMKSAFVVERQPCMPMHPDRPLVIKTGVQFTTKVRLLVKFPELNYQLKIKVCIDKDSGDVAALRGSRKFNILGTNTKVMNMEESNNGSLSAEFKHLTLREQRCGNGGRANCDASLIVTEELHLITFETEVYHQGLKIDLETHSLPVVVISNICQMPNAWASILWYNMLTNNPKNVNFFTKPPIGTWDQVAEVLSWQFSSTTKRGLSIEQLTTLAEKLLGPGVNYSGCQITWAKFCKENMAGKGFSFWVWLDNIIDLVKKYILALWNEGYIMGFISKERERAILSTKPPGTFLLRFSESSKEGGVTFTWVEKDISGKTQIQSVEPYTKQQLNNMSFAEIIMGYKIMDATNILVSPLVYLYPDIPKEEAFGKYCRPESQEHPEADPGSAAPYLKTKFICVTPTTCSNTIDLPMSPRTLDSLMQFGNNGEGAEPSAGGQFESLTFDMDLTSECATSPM

Results are given in words; binding and its absence hold for the method and conditions named. In cells and extracts the contact can be indirect. Here binding means that the protein was enriched with, or labelled near, the bait; the list need not be complete.

The chains are these.
B1: FOXL2 (protein, UniProt O88470 1-375)
chain: MMASYPEPEDTAGTLLAPESGRAVKEAEASPPSPGKGGGTTPEKPDPAQKPPYSYVALIAMAIRESAEKRLTLSGIYQYIIAKFPFYEKNKKGWQNSIRHNLSLNECFIKVPREGGGERKGNYWTLDPACEDMFEKGNYRRRRRMKRPFRPPPAHFQPGKGLFGSGGAAGGCGVPGAGADGYGYLAPPKYLQSGFLNNSWPLPQPPSPMPYASCQMAAAAAAAAAAAAAAGPGSPGAAAVVKGLAGPAASYGPYSRVQSMALPPGVVNSYNGLGGPPAAPPPPPPPPHPHPHPHAHHLHAAAAPPPAPPHHGAAAPPPGQLSPASPATAAPPAPAPTSAPGLQFACARQPELAMMHCSYWDHDSKTGALHSRLDL
B2: LMX1B (protein, UniProt O88609 1-395)
chain: MDIATGPESLERCFPRGQTDCAKMLDGIKMEEHALRPGPATLGVLLGSDCPHPAVCEGCQRPISDRFLMRVNESSWHEECLQCAACQQALTTSCYFRDRKLYCKQDYQQLFAAKCSGCMEKIAPTEFVMRALECVYHLGCFCCCVCERQLRKGDEFVLKEGQLLCKGDYEKEKDLLSSVSPDESDSVKSEDEDGDMKPAKGQGSQSKGSGDDGKDPRRPKRPRTILTTQQRRAFKASFEVSSKPCRKVRETLAAETGLSVRVVQVWFQNQRAKMKKLARRHQQQQEQQNSQRLGQEVLSSRMEGMMASYTPLAPPQQQIVAMEQSPYGSSDPFQQGLTPPQMPGNDSIFHDIDSDTSLTSLSDCFLGSSDVGSLQARVGNPIDRLYSMQSSYFAS
B3: TCF21 (protein, UniProt O35437 1-179)
chain: MSTGSLSDVEDLQEVEMLDCDSLKVDSNKEFGTSNESTEEGSNCENGSPQKGRGGLGKRRKAPTKKSPLSGVSQEGKQVQRNAANARERARMRVLSKAFSRLKTTLPWVPPDTKLSKLDTLRLASSYIAHLRQILANDKYENGYIHPVNLTWPFMVAGKPENDLKEVVTANRLCGTTAS
B4: NFYB (protein, UniProt P63139 1-207)
chain: MTMDGDSSTTDASQLGISADYIGGSHYVIQPHDDTEDSMNDHEDTNGSKESFREQDIYLPIANVARIMKNAIPQTGKIAKDAKECVQECVSEFISFITSEASERCHQEKRKTINGEDILFAMSTLGFDSYVEPLKLYLQKFREAMKGEKGIGGAVSATDGLSEELTEEAFTNQLPAGLITADGQQQNVMVYTTSYQQISGVQQIQFS
B5: KDM4A (protein, UniProt Q8BW72 1-1064)
chain: MASESETLNPSARIMTFYPTMEEFRNFSRYIAYIESQGAHRAGLAKVVPPKEWKPRTSYDDIDDLVIPAPIQQLVTGQSGLFTQYNIQKKAMTVREFRKIANSDKYCTPRYSEFEELERKYWKNLTFNPPIYGADVNGTLYEQHVDEWNIGRLKTILDLVEKESGITIEGVNTPYLYFGMWKTSFAWHTEDMDLYSINYLHFGEPKSWYSVPPEHGKRLERLAKGFFPGSAQSCEAFLRHKMTLISPLMLKKYGIPFDKVTQEAGEFMITFPYGYHAGFNHGFNCAESTNFATRRWIEYGKQAVLCSCRKDMVKISMDVFVRRFQPERYKLWKAGKDSMVIDHTLPTPEAAEFLKDSGGLTPRAGSEECPEEDVEAADQGEEGDVKRSLAKHRIGTKRHRVCLEIPQEVSQSELFPKEELSSGQYEMTECPATLAPVRPTHSSVRQVEDSLPFPDYSDPTEVKFEELKNVKLEEEDEEDEPEAAALDLSVNPASVGGRLVFSGSKKKSSSSLGSTSSQDSVSSDSETAESVSCQGQEKTGVLTVHSYARGDGKAATGEPSVKKKRSAPRSISEQELAEVADEYMLSLEENKKTKGRRQPLSKLPRHHPLVLQECGSDDETSEQLTPEEEAEETEAWAKPLSQLWQNRPPNFEAEKEFNEIMAQQAPHCAVCMIFQTYHQVEFGAFSQSCGDASEPAAQTQRTKPLIPEMCFTTTGCSTDINLSTPYLEEDGTSMLVSCKKCSVRVHASCYGVPPAKASEEWMCSRCSANALEEDCCLCSLRGGALQRANDDRWVHVSCAVAILEARFVNIAERSPVDVSKIPLPRFKLKCVFCKKRRKRNAGCCVQCSHGRCPTAFHVSCAQAAGVMMQPDDWPFVVFITCFRHKIPNLERAKGALLSITAGQKVISKHKNGRFYQCEVVRLTTETFYEVNFDDGSFSDNLYPEDIVSQDCLQLGPPAEGEVVQVRWTDGQVYGAKFVASHPIQMYQVEFEDGSQLVVKRDDVYTLDEELPKRVKSRLSVASDMRFNEIFTEKEVKQEKKRQRVINSRYREDYIEPALYRAIME

The first assay has as its target Transcription factor 4 (TCF4) (mouse (endogenous in E12.5 Nr5a1-GFP gonadal cells)) (UniProt Q60722). The assay can be described thus: affinity purification with mass spectrometry; endogenous TCF4 immunoprecipitated (anti-TCF4 crosslinked to Protein G Dynabeads, IgG control) from lysates of FACS-sorted E12.5 XX or XY Nr5a1-GFP gonadal cells, three replicates of 4 million cells; overnight at 4°C; washes up to 1% Triton X-100 and 360 mM NaCl; LC-MS (DIA); partners at least 1.5-fold over IgG, P <= 0.05.
Consider STAT3 (from UniProt P42227 1-770), for which the binding entry is on record as “binds”.

For the next assay the target is unchanged. The description is as above. This is another data set of the same source.
Consider B1, for which the binding entry is listed as “binds”. On to B2, for which the binding entry is reported as “binds”. On the same count and under the same terms, next, B3: “binds”; B4: “binds”. Take B5: the binding entry is “binds”.
